No constants are given. Whether binding was seen depends on the method and setting. For part of these data: In cells and extracts the contact can be indirect. Some entries that bind do so weakly or less than the wild type. For part of these data: Tags and fused reporters may be left off the sequences shown. Blank lines part the entries; values can stand above or below the binder they belong to.
Experiments:
[1] = molecular target: endogenous Apaf-1 polypeptide of 293T cells (human) (UniProt O14727); test: co-immunoprecipitation from 293T cells, Apaf-1 western blot
[2] = molecular target: T1, endogenous procaspase-7 (LNZ308, U87MG and 293T cells) (human) (UniProt P55210); test: anti-L12-2 co-immunoprecipitation from LNZ308, U87MG and 293T lysates, caspase-7 western blot
T1 sequence (looked up): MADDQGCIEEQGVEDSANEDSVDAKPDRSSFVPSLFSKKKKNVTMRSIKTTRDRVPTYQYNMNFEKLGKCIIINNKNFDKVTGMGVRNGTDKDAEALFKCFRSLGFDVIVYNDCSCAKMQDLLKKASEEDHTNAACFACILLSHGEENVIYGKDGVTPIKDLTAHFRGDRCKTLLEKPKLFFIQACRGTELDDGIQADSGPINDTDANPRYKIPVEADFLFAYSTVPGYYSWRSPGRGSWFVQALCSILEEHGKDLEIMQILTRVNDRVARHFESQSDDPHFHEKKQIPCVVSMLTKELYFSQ

Protein sequences, listed by entry. Tags and fused reporters are not part of them.
UniProt O14727: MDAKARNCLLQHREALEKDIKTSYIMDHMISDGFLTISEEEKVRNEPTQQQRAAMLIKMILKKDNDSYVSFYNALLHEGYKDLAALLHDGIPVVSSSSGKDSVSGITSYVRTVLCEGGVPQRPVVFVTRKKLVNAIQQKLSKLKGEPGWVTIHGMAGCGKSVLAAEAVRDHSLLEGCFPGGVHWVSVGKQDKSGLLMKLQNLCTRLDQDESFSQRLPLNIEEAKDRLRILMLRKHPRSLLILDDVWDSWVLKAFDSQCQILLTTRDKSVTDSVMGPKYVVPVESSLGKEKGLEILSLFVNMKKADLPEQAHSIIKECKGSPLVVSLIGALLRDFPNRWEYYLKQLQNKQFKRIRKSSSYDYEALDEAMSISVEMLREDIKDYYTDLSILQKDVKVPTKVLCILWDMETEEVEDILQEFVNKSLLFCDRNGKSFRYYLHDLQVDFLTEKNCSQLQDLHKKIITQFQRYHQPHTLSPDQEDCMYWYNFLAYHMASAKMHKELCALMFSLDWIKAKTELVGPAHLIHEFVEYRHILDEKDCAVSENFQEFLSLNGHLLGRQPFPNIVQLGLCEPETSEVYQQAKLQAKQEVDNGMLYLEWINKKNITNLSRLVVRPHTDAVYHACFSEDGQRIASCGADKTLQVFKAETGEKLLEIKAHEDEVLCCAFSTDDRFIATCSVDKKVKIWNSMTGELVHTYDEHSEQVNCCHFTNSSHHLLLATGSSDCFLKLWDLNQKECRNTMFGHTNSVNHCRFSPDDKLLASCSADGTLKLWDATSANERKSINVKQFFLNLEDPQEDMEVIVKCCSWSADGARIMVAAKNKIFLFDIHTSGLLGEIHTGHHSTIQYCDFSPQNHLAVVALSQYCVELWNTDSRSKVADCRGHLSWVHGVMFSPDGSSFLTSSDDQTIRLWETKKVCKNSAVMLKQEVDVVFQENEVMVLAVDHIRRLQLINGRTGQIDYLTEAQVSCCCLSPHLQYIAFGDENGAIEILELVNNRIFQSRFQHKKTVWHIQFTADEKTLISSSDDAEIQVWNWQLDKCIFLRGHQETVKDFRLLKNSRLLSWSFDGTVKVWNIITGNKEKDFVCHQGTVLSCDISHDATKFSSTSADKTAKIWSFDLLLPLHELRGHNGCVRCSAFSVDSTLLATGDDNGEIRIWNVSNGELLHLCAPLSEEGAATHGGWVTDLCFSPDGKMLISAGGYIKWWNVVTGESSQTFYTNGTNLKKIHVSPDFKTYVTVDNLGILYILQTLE
UniProt P02340: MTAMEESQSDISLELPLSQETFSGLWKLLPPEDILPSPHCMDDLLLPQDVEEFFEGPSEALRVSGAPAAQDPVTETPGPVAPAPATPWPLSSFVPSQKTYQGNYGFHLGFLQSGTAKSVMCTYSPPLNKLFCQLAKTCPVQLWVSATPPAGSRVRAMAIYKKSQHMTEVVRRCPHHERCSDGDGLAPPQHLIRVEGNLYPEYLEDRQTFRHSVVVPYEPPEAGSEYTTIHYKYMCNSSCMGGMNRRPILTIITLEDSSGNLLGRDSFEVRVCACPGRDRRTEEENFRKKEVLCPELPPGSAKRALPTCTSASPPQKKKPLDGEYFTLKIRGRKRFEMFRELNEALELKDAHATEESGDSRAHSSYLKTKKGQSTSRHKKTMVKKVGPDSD

[3] = molecular target: T2, recombinant (His)6-caspase-7 polypeptide (UniProt P55210); test: in vitro translated Bcl2L12-V5 precipitated with (His)6-caspase-7 on Ni-NTA beads, autoradiography
T2 sequence: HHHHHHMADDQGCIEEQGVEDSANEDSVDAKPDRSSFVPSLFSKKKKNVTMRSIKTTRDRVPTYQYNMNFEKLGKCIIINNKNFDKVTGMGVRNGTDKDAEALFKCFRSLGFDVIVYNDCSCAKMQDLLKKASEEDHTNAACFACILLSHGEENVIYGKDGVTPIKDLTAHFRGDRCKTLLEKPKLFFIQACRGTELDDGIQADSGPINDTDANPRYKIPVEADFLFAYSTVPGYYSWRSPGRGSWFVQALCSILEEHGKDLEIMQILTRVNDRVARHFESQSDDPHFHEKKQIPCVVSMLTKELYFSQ

[4] = molecular target: endogenous Apaf-1 polypeptide of 293T cells (human) (UniProt O14727); test: anti-V5 co-immunoprecipitation from 293T cells, Apaf-1 western blot
[5] = molecular target: p53 polypeptide immunoprecipitated from Ink4a/Arf deficient astrocytes (mouse) (UniProt P02340); test: p53 immunoprecipitation from Ink4a/Arf deficient astrocytes, anti-V5 immunoblot
HA-tagged p53 = HA-tagged p53 (UniProt P04637); test: anti-HA immunoprecipitation from U87MG cells, anti-V5 immunoblot

binding [1]: binds
B1: Bcl2L12-V5-ΔBH2 polypeptide (human amino acid sequence 1-310) (protein, not shown: small tags and cut ends)
chain: MGRPAGLFPPLCPFLGFRPEACWERHMQIERAPSVPPFLRWAGYRPGPVRRRGKVELIKFVRVQWRRPQVEWRRRRWGPGPGASMAGSEELGLREDTLRVLAAFLRRGEAAGSPVPTPPRSPAQEEPTDFLSRLRRCLPCSLGRGAAPSESPRPCSLPIRPCYGLEPGPATPDFYALVAQRLEQLVQEQLKSPPSPELQGPPSTEKEAILRRLVALLEEEAEVINQKLASDPALRSKLVRLSSDSFARLVELFCSRDDSSRPSRACPGPPPPSPEPLARLALAMELSRRVAGLGGTLAGLSVEHVHSFTP

binding [2]: binds
B2: endogenous Bcl2L12 polypeptide of human cell lines (LNZ308, LN443, LN382, U87MG, 293T) (other)
chain: MGRPAGLFPPLCPFLGFRPEACWERHMQIERAPSVPPFLRWAGYRPGPVRRRGKVELIKFVRVQWRRPQVEWRRRRWGPGPGASMAGSEELGLREDTLRVLAAFLRRGEAAGSPVPTPPRSPAQEEPTDFLSRLRRCLPCSLGRGAAPSESPRPCSLPIRPCYGLEPGPATPDFYALVAQRLEQLVQEQLKSPPSPELQGPPSTEKEAILRRLVALLEEEAEVINQKLASDPALRSKLVRLSSDSFARLVELFCSRDDSSRPSRACPGPPPPSPEPLARLALAMELSRRVAGLGGTLAGLSVEHVHSFTPWIQAHGGWEGILAVSPVDLNLPLD
notes: Endogenous protein in lysates or fixed cells of human cell lines

binding [3]: binds
binding [4]: binds
binding [5]: binds
binding (HA-tagged p53): binds
B3: Bcl2L12-V5 polypeptide (V5 tagged wild-type human Bcl2L12, human amino acid sequence 1-334) (protein, not shown: small tags and cut ends)
chain: B2 chain

— patent publication US20060252053A1 (Dana-Farber, published 2006)
